Laboratory results taken from PubChem BioAssay AID2685 (National Center for Advancing Translational Sciences (NCATS), 2010).
The list shows a part of the results. The main result of the screen is listed elsewhere. These columns were measured beside it and carry no call. Compounds called inactive in the main read-out are mostly missing here. Potencies come from curve fits of mixed quality, noted in brackets.

Test: qHTS Assay for Lipid Storage Modulators in Drosophila S3 Cells;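 on cell number change: cells counted by Cell Tracker Red CMTPX staining in the red channel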
Conditions: BODIPY lipid droplet fluorescence, 18-24 h; for cell number change: measured here: cell count max response, cells fed with added oleic acid
Procedure, shortened: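 Drosophila S3 cells got compounds at several concentrations plus oleic acid (400 uM solution). Laser-scanning cytometry with 488 nm excitation read lipid droplets at 500-530 nm and cells at 575-640 nm. Percent activity was relative to 20 uM Triacsin C.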

[1] = measured here: lipid fluorescence (Fed channel) AC50, cells fed with added oleic acid
[2] = measured here: cell number channel AC50, cells fed with added oleic acid

With `COc1ccc2c(c1)C1NC(=S)N[C@@](C)(O2)C1C(=O)Nc1ccccc1` (stereo partly drawn) the AC50 [1] was 0.461 µM [rising, full curve].
For `O=C(Cn1cnc2sc(-c3ccccc3)cc2c1=O)NCc1ccccc1`, the AC50 [2] was 2.31 µM [rising, partial curve] and the AC50 [1] was 2.06 µM [rising, partial curve].
With `CS(=O)(=O)c1ccc2nc(NC(=O)Nc3cccc(Cl)c3)sc2c1` the AC50 [1] was 8.2 µM [falling, partial curve].
In the case of `O=C1NC2(CCCCC2)C(=O)N1CCS(=O)(=O)Oc1ccccc1`, the cell number change is reported as -1.09%.
In the case of `C/C(=N\NC(=O)COc1cccc(C)c1)c1ccc2ccccc2c1O`, the cell number change is reported as -8.22% and the AC50 [1] is reported as 29.1 µM [falling, single point].
With `COc1ccc(CNCCC(c2ccc(F)cc2)c2ccc(OC(C)C)cc2)cc1OC` (stereo not drawn) the cell number change was -44.7%, the AC50 [2] was 23.1 µM [falling, partial curve] and the AC50 [1] was 23.1 µM [falling, partial curve, poor fit].
In the case of `NNC(=O)COc1ccc(-c2n[nH]c(C(F)(F)F)c2-c2ccc(Br)cc2)c(O)c1`, the cell number change is reported as -24.1% and the AC50 [1] is reported as 0.461 µM [falling, single point].
For `O=C(NS(=O)(=O)c1ccccc1)c1ccccc1`, the cell number change was -51.8%, the AC50 [2] was 29.1 µM [falling, single point] and the AC50 [1] was 29.1 µM [falling, single point].
With `S=c1[nH]nc(COc2ccccc2)n1/N=C/c1cccs1` the cell number change was -23.1% and the AC50 [1] was 32.6 µM [falling, single point].
In the case of `COc1ccc(CCN(C)C(=O)N2CCOCC2)cc1OC`, the cell number change is reported as -18.4% and the AC50 [1] is reported as 2.31 µM [falling, partial curve].
With `CN(CC(=O)Nc1ccc(F)c(F)c1F)C(=O)CCCc1nc2ccccc2c(=O)[nH]1` the cell number change was -9.52% and the AC50 [1] was 0.651 µM [rising, partial curve].
For `COc1ccc(OC)c(NC(=O)C2=C(C)Nc3ncnn3C2c2cccs2)c1` (stereo not drawn), the cell number change was 13.1% and the AC50 [1] was 0.82 µM [rising, full curve, poor fit].
With `COc1ccc(NC(=S)NCCCN2CCCC2)cc1Cl` the cell number change was -3.79%.
With `COc1ccc(-c2nc3ccccc3c(=O)n2CCOc2ccc(C)cc2C)cc1` the cell number change was -26.5% and the AC50 [1] was 32.6 µM [falling, single point].
For `CCCC(=O)Nc1cc(C)c(NC(=O)c2ccco2)cn1`, the cell number change was 31.1%, the AC50 [2] was 32.6 µM [rising, single point] and the AC50 [1] was 29.1 µM [rising, single point].
With `c1ccc(CCc2nc(-c3ccccn3)no2)cc1` the cell number change was 33.3% and the AC50 [2] was 18.4 µM [rising, single point].
With `COc1ccc(NC(=O)c2sc3nc(N4CCCC4)c4c(c3c2N)CC(C)(C)OC4)c(OC)c1` the cell number change was -1.53% and the AC50 [1] was 16.4 µM [rising, single point].
